Assay results taken from patent US8980311B2 (University of Georgia Research Foundation, Inc., priority 2006, dated 2015).

Legend:
[1] = general procedure: Fmoc solid-phase peptide synthesis; H-Gly-sulfamylbutyryl Novasyn TG resin; HBTU/HOBt, DIPEA; manual couplings with PyBOP/HOBt; settings: whole synthesis, on resin loading, scale 0.1 mmol
[2] = general procedure: Fmoc solid-phase peptide synthesis; Rink amide linker resin; H-Gly-sulfamylbutyryl Novasyn TG resin; HBTU/HOBt, DIPEA; manual couplings with PyBOP/HOBt; settings: late stage modification step

| Substance | isolated yield [1] | step yield [2] |
| --- | --- | --- |
| C (Acm)YAFKYARHANVGRNAFELFLGCOSBn | 79% based on resin loading capacity |  |
| C(Acm)KLFAVWKITYKDTGCOSBn | 74% based on resin loading capacity |  |
| Cys-MUC1 glycopeptide |  | 88% |
